Laboratory results from paper PMC9546770.
These are yes or no findings as the source states them, for the method shown. Binding seen in cells or lysates may run through a third protein. Some entries that bind do so weakly or less than the wild type. For part of these data: Sequences can lack the tags named with a protein.

Sequences of proteins named here, by UniProt entry; tags and fusion partners are left off.
UniProt Q05397: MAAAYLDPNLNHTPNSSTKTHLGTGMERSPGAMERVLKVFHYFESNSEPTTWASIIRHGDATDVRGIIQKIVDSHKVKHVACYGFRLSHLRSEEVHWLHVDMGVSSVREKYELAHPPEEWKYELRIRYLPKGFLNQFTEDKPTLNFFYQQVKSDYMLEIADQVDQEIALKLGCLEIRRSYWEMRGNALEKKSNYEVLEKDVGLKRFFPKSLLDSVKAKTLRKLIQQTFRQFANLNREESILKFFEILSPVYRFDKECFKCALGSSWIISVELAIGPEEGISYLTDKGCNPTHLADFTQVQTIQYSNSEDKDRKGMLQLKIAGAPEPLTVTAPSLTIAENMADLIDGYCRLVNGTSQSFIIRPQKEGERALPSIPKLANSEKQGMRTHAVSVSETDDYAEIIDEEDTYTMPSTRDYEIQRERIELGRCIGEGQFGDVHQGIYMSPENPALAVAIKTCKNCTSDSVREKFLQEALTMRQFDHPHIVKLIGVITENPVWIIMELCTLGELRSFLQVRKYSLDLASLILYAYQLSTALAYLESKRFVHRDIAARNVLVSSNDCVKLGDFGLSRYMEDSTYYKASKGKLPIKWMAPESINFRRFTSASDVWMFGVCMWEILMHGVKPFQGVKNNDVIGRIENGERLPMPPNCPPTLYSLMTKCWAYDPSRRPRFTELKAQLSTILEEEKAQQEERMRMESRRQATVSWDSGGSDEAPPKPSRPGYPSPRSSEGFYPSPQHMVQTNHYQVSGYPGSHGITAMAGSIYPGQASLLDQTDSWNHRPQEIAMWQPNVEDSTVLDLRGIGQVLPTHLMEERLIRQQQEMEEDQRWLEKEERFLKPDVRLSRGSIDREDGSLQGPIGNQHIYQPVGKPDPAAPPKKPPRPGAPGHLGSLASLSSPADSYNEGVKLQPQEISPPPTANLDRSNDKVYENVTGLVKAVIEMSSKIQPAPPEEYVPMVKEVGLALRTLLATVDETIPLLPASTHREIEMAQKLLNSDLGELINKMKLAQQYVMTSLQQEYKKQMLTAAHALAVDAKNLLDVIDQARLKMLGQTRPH

Columns and labels:
Myc-IGSF9 = biological target: T1, Myc-IGSF9 (UniProt Q05BQ1); assay: co-IP; HEK-293T cells transfected with tagged plasmids; lysates immunoprecipitated with anti-myc mouse monoclonal antibody or normal IgG, protein A/G beads, overnight at 4 °C; western blot
T1 sequence: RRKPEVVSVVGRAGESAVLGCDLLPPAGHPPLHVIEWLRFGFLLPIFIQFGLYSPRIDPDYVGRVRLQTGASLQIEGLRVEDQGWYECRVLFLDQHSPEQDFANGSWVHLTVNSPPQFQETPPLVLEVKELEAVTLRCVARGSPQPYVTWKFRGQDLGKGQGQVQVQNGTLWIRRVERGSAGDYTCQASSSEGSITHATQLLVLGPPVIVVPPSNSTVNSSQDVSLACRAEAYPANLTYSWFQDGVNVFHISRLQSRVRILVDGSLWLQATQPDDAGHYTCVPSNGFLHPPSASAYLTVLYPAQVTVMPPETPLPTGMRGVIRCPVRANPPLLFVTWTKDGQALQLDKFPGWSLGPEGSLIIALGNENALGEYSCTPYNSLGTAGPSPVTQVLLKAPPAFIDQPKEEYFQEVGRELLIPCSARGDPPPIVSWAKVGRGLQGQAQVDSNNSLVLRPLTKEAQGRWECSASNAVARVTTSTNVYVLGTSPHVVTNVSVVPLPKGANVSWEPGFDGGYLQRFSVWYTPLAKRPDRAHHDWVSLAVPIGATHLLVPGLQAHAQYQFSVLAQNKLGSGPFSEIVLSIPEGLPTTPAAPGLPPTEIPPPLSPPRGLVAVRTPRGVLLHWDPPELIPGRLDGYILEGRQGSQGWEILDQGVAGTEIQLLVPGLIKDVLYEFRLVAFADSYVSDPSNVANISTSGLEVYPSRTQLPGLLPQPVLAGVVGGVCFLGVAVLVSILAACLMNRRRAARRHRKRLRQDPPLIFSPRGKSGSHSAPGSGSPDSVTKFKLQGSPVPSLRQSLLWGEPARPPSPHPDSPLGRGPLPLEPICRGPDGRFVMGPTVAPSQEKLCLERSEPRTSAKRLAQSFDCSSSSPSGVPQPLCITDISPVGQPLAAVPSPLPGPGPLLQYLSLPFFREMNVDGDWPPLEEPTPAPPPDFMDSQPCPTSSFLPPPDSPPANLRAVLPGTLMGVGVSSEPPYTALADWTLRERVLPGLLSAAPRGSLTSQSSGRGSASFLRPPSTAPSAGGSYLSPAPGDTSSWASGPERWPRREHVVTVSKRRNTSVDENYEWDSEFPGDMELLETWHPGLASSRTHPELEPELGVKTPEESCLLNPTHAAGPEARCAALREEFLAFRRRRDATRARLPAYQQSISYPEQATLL

[1] = biological target: T2, Myc-tagged IGSF9 (1-493 aa) (UniProt Q05BQ1); assay: as above
T2 sequence: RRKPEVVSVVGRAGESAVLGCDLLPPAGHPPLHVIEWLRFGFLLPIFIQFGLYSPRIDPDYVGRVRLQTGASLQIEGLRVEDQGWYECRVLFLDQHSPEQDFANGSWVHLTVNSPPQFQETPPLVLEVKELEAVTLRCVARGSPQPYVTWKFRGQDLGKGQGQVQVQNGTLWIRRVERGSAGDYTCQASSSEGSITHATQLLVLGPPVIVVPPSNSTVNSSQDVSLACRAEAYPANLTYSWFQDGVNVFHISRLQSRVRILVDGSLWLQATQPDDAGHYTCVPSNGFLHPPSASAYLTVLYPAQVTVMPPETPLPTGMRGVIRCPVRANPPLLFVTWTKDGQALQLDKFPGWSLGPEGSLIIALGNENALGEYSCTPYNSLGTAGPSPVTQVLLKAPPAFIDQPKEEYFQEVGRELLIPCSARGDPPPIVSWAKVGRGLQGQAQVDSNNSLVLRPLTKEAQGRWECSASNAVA

[2] = biological target: T3, Immunoglobulin superfamily 9 (IGSF9), endogenous in MCF-7 cells (human (endogenous in MCF-7)) (UniProt Q9P2J2); assay: co-IP; endogenous proteins in MCF-7 cell lysate; IP lysis buffer, protein A/G beads, overnight at 4 °C; western blot; precipitating antibody for the endogenous experiment not told
T3 sequence: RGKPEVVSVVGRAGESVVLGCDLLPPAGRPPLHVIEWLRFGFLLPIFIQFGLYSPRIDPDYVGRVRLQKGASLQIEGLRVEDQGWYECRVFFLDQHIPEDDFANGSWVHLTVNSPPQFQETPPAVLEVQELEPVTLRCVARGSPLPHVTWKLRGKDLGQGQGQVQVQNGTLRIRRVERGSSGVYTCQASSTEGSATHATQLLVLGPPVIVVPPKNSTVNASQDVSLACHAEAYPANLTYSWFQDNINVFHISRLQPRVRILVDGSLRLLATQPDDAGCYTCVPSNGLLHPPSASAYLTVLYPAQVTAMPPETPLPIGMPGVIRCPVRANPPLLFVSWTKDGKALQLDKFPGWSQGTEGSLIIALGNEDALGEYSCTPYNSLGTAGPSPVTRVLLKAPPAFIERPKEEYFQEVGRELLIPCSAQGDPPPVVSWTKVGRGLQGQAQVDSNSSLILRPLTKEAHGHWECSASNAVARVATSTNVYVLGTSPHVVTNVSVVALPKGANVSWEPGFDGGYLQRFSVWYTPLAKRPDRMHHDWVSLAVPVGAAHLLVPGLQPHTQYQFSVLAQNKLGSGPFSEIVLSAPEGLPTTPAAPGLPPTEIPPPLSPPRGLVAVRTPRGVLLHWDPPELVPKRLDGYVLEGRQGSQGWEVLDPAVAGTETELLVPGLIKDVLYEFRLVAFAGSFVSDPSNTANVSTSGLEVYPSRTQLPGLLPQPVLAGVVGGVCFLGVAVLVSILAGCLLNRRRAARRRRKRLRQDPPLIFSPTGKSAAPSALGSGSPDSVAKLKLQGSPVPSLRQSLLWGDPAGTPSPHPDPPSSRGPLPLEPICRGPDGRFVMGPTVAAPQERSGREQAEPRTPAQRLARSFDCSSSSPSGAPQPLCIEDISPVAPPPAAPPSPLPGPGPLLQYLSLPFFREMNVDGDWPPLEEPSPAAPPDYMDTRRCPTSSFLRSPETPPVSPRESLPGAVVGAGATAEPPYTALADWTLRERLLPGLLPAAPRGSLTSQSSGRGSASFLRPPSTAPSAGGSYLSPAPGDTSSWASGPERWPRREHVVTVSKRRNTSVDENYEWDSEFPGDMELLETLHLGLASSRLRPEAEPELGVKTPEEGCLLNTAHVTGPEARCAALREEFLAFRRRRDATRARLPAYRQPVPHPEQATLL

Row | binding (Myc-IGSF9) | binding [1] | binding [2] | Substance
1 | binds | binds | – | Flag-FAK (from UniProt Q05397 1-1052) (enzyme)
2 | – | – | binds | Focal adhesion kinase (FAK), endogenous in MCF-7 cells (from UniProt Q05397 1-1052) (enzyme)
